Reference: PubChem BioAssay AID504808 (Drosophila RNAi Screening Center, 2011)

Purpose: 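Fly genes required to hold E2F transcription in check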 (primary screen)
System: Drosophila S2 cells
Reagent: long dsRNA against Drosophila genes
Read-out: 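Firefly luciferase driven by E2F sites, normalised to Renilla luciferase on the same minimal promoter, measured by plate reader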
Direction: E2F firefly: higher = more E2F reporter activity; Renilla normaliser: higher = more normaliser reporter signal
Hit rule: 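a knock-down counted as active when the firefly/Renilla E2F signal rose above 50%, a threshold chosen arbitrarily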
The screen tested about 21,000 reagents; this is an unselected part of those that have a named target and a result. In the full data, 18 (0.084%) were called active. 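Raw counts without plate normalisation, one of two replicates; the ratio scores behind the calls were not deposited.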 A number with no mark means an inactive call. The numbers tell different reagents against one gene apart. A plus sign joins genes that one reagent is predicted to hit. The record does not give: the amount of reagent, the time to read-out.

The opening 6 records as a preview:
target gene	reagent no.	E2F firefly, rep 1	Renilla normaliser, rep 1
CG7985 (GeneID 42178)	1	62219	3536
Archease (GeneID 42551)	1	1.50e5	8351
eloF (GeneID 41211)	1	1.41e5	6009
SPARC (GeneID 43230)	1	1.20e5	5535
for (GeneID 44817)	1	1.34e5	4656
for (GeneID 44817)	2	96084	3582

Main list, repeating the preview:
target gene	reagent no.	E2F firefly, rep 1	Renilla normaliser, rep 1
CG7985 (GeneID 42178)	1	62219	3536
Archease (GeneID 42551)	1	1.50e5	8351
eloF (GeneID 41211)	1	1.41e5	6009
SPARC (GeneID 43230)	1	1.20e5	5535
for (GeneID 44817)	1	1.34e5	4656
for (GeneID 44817)	2	96084	3582
CG14717 (GeneID 41412)	1	1.49e5	7332
ghi (GeneID 317833)	1	1.38e5	4792
otu (GeneID 31789)	1	77578	5033
shv (GeneID 33220)	1	1.72e5	6188
sky (GeneID 35359)	1	78415	3419
sky (GeneID 35359)	2	69977	3463
sky (GeneID 35359)	3	92032	4250
RpS12 (GeneID 39480)	1	56879	3500
CG11158 (GeneID 32327)	1	1.16e5	5537
CG31789 (GeneID 318943)	1	1.45e5	5765
Mulk (GeneID 326168)	1	89094	3446
CG14629 (GeneID 31055)	1	84600	6170
Sytalpha (GeneID 35068)	1	1.10e5	4407
CG9590 (GeneID 41907)	1	78226	3187
Acph-1 (GeneID 48445)	1	1.10e5	6738
IntS6 (GeneID 31496)	1	10763	868
ebo (GeneID 47141)	1	1926	904
CG11241 (GeneID 40492)	1	68018	3281
veg (retired record) (GeneID 44057)	1	1.44e5	5484
Nep5 (GeneID 43255)	1	1927	1092
CG31265 (GeneID 42068)	1	1.19e5	6718
pk (GeneID 45343)	1	1.34e5	4934
pk (GeneID 45343)	2	1.77e5	5559
CG9897 + asRNA:CR42742	1	95813	3717
CG14455 (GeneID 40480)	1	1.20e5	6665
Cpr67B (GeneID 39081)	1	82609	3050
CG8372 (GeneID 34121)	1	92552	4096
CG32379 (GeneID 326211)	1	1.00e5	4071
glo (GeneID 41431)	1	1.24e5	6391
CG7785 (GeneID 42158)	1	1.35e5	7489
Ir52b (GeneID 246631)	1	89222	3662
Chi (GeneID 37837)	1	78309	3403
CG6724 (GeneID 34488)	1	1.36e5	5380
Dronc (GeneID 39173)	1	96979	4747
CG34112 (GeneID 4379842)	1	1.42e5	7082
CG11409 (GeneID 31078)	1	1859	816
Art9 (GeneID 41698)	1	1.15e5	6092
CG5445 (GeneID 32722)	1	1.68e5	5135
Rtel1 (GeneID 31497)	1	56007	3857
e(y)2b (GeneID 50143)	1	1.28e5	6975
dsd (GeneID 43315)	1	86877	2543
dsd (GeneID 43315)	2	1639	964
CG34290 (GeneID 5740609)	1	89115	2345
CG7970 (GeneID 38205)	1	72552	4125
boca (GeneID 48986)	1	1.39e5	4661
nord (GeneID 37882)	1	1.14e5	4839
nord (GeneID 37882)	2	1.17e5	4636
Cyp4d20 (GeneID 38311)	1	1.09e5	4774
CG7377 (GeneID 2768978)	1	1.13e5	6216
CG11076 (GeneID 43830)	1	1.18e5	6556
CG14966 (GeneID 38390)	1	97542	3797
Tep3 (GeneID 34045)	1	1.42e5	4820
CG42505 + CG42504 + CG31358	1	66198	3511
CG42505 + CG42504 + CG31358	2	55025	2896
CG42505 + CG42504 + CG31358	3	1.30e5	5501
Orp8 (GeneID 42412)	1	1.55e5	7291
Orp8 (GeneID 42412)	2	66057	3224
TBC1D5 (GeneID 41628)	1	81366	3778
CG14325 (GeneID 42123)	1	95265	5556
CG10209 (GeneID 36652)	1	2814	213
pdm2 (GeneID 34673)	1	1.05e5	4738
pdm2 (GeneID 34673)	2	1.00e5	4262
pdm2 (GeneID 34673)	3	1.24e5	4812
CG13461 (GeneID 39635)	1	1.40e5	7689
BoYb (GeneID 40512)	1	73781	3647
RpL14 (GeneID 38983)	1	69299	4487
SecCl (GeneID 39949)	1	1.70e5	7562
CG9737 (GeneID 43600)	1	1.41e5	6946
Tango10 (GeneID 32125)	1	8543	728
CG11413 + CG4622	1	1.01e5	4097
CHOp24 (GeneID 31382)	1	1969	976
CG3106 (GeneID 31909)	1	7810	744
Uqcc1 + CG9948	1	97099	3615
AGO1 (GeneID 36544)	1	1923	186
CG17385 (GeneID 36603)	1	89869	3467
osp (GeneID 34850)	1	1.35e5	5157
osp (GeneID 34850)	2	68708	3496
Jon99Ciii (GeneID 43543)	1	79052	6337
